Measurements reported in PubChem BioAssay AID652272 (Drosophila RNAi Screening Center, 2013)

Test: 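Finding fly genes that regulate Hedgehog signal transduction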 (primary screen)
Cells: Drosophila clone 8 (Cl8) cells
Reagent: long dsRNA against Drosophila genes
Measurement: 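Firefly light from a Hedgehog-responsive ptc promoter reporter and Renilla reference light, both read on a plate reader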
Direction: firefly Hh reporter signal: higher = more ptc reporter light; Renilla reference signal: higher = more Renilla control light
Active means: 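Called a hit if the two-replicate mean z-score lies below -2 or above +3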
Meaning of the calls: active = hit: reporter lowered or raised; inactive = not a hit
The screen tested about 21,000 reagents; below is a random part of those with a known target gene and a result. Over the whole deposit, 503 (2.4%) are marked active. 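Raw plate light values, not normalised; calls rest on replicate z-scores that were not deposited; hits include reporter decreases as well as increases.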 A plus sign joins genes that one reagent is predicted to hit. No sequences are given here. The record does not give: the amount of reagent, the time to read-out.

CG6766 [DRSC02991] showed firefly Hh reporter signal, replicate 1 = 1.15e5; firefly Hh reporter signal, replicate 2 = 4.75e5; firefly Hh reporter signal, replicate 3 = 69929; Renilla reference signal, replicate 1 = 3026; Renilla reference signal, replicate 2 = 28440; inactive.
Knock-down of Cyp4aa1 [DRSC07368] gave: firefly Hh reporter signal, replicate 1 = 61718; firefly Hh reporter signal, replicate 2 = 47997; Renilla reference signal, replicate 1 = 1683; Renilla reference signal, replicate 2 = 3469; inactive.
Gr64b + Gr64c [DRSC08444] gave firefly Hh reporter signal, replicate 1 = 74411; firefly Hh reporter signal, replicate 2 = 60040; Renilla reference signal, replicate 1 = 2305; Renilla reference signal, replicate 2 = 5251; inactive.
With knock-down of Gr64b + Gr64c [DRSC08445], the record shows firefly Hh reporter signal, replicate 1 = 89866; firefly Hh reporter signal, replicate 2 = 60537; Renilla reference signal, replicate 1 = 3211; Renilla reference signal, replicate 2 = 4806; inactive.
For inaF-B [DRSC18903], the entry reads firefly Hh reporter signal, replicate 1 = 4.41e5; firefly Hh reporter signal, replicate 2 = 2.03e5; Renilla reference signal, replicate 1 = 24568; Renilla reference signal, replicate 2 = 4336; inactive.
CG15035 [DRSC17967] showed firefly Hh reporter signal, replicate 1 = 80181; firefly Hh reporter signal, replicate 2 = 2.51e5; Renilla reference signal, replicate 1 = 3003; Renilla reference signal, replicate 2 = 8779; inactive.
For fj [DRSC07619], the values are firefly Hh reporter signal, replicate 1 = 75002; firefly Hh reporter signal, replicate 2 = 50307; Renilla reference signal, replicate 1 = 1856; Renilla reference signal, replicate 2 = 3541; inactive.
Antdh [DRSC20307] scored firefly Hh reporter signal, replicate 1 = 66198; firefly Hh reporter signal, replicate 2 = 1.61e5; Renilla reference signal, replicate 1 = 1648; Renilla reference signal, replicate 2 = 6640; inactive.
Jon65Aiii [DRSC10649] gave firefly Hh reporter signal, replicate 1 = 79348; firefly Hh reporter signal, replicate 2 = 70866; Renilla reference signal, replicate 1 = 3961; Renilla reference signal, replicate 2 = 3099; inactive.
Knock-down of Nsun2 [DRSC18662] gave: firefly Hh reporter signal, replicate 1 = 1.52e5; firefly Hh reporter signal, replicate 2 = 1.53e5; Renilla reference signal, replicate 1 = 3127; Renilla reference signal, replicate 2 = 5123; inactive.
Silencing of mthl4 [DRSC06998] resulted in: firefly Hh reporter signal, replicate 1 = 1.33e5; firefly Hh reporter signal, replicate 2 = 1.00e5; Renilla reference signal, replicate 1 = 3621; Renilla reference signal, replicate 2 = 7411; inactive.
Depletion of CG6254 [DRSC16002] resulted in: firefly Hh reporter signal, replicate 1 = 1.16e5; firefly Hh reporter signal, replicate 2 = 1.04e5; Renilla reference signal, replicate 1 = 5080; Renilla reference signal, replicate 2 = 4130; inactive.
After knock-down of CG13409 [DRSC14585] the results were firefly Hh reporter signal, replicate 1 = 7.96e5; firefly Hh reporter signal, replicate 2 = 1.61e5; Renilla reference signal, replicate 1 = 46314; Renilla reference signal, replicate 2 = 11634; inactive.
Grl65a [DRSC08837] scored firefly Hh reporter signal, replicate 1 = 93706; firefly Hh reporter signal, replicate 2 = 2.10e5; Renilla reference signal, replicate 1 = 2738; Renilla reference signal, replicate 2 = 8257; inactive.

2 entries already listed, arranged by “Renilla reference signal, replicate 1”, ascending:
Antdh [DRSC20307] | firefly Hh reporter signal, replicate 1: 66198; firefly Hh reporter signal, replicate 2: 1.61e5; Renilla reference signal, replicate 1: 1648; Renilla reference signal, replicate 2: 6640; activity call: inactive
fj [DRSC07619] | firefly Hh reporter signal, replicate 1: 75002; firefly Hh reporter signal, replicate 2: 50307; Renilla reference signal, replicate 1: 1856; Renilla reference signal, replicate 2: 3541; activity call: inactive
